{"source": "PubChem BioAssay AID2685", "about": "(National Center for Advancing Translational Sciences (NCATS), 2010)", "note": "Hit rate of the full screen: of about 320,000 compounds, about 2,100 (0.66%) were called active. Inconclusive means that the source gave no clear call. Such entries were picked first, then a sample of the others. Calls follow the shape of the dose curve; as a rule, active = well fitted inhibition curve with a large enough effect in the signal ratio, with a control signal flat (not every such curve was filed as active); inconclusive = small, poorly fitted or top-dose-only effect, or effect the other way, or a change in a side signal; inactive = flat fitted curve, though single readings scatter; the % refers to the signal ratio. Potencies beside an inconclusive call are fits to weak or partial responses and may not hold up. % is scaled to controls: 0 for no effect and ±100 for the full control effect; potency is read from the fitted curve at half-maximal effect."}
{"experiment": "qHTS Assay for Lipid Storage Modulators in Drosophila S3 Cells", "settings": "BODIPY lipid droplet fluorescence, 18-24 h, cells fed with added oleic acid; lipid storage change, negative = inhibition: at 46.1 µM (top of the series) unless noted", "method_in_brief": "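Drosophila S3 cells loaded with oleic acid (400 uM, as added) and compounds at several concentrations; lipid droplets imaged by 488-nm laser-scanning cytometry, 500–530 nm intensity and object ratio to cell channel. Percent activity normalized to 20 uM Triacsin C.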"}
{"smiles": "O=C(Nc1cccc(C(=O)N2CCN(c3ccc(F)cc3)CC2)c1)c1ccccc1", "lipid storage change, negative = inhibition": "inconclusive: 22.7%"}
{"smiles": "COc1ccc(C)cc1NC(=O)CSc1nnc(-c2cc3cccc(OC)c3o2)n1N", "lipid storage change, negative = inhibition": "inconclusive: 19.2%"}
{"smiles": "CCOc1ccc(NC(=O)CN(C)CC(=O)Nc2ccc(Br)cc2F)cc1OCC", "Potency": "inconclusive: 13 µM [rising, partial curve]"}
{"smiles": "CCOCc1nnc(NC(=O)c2cc(OC)c(OC)c(OC)c2)s1", "lipid storage change, negative = inhibition": "inconclusive: -9.78%"}
{"smiles": "O=[N+]([O-])c1cc(Cl)cc(/C=N/NC(=S)Nc2cc(S(=O)(=O)N3CCOCC3)ccc2Cl)c1O", "lipid storage change, negative = inhibition": "inconclusive: -14.2%"}
{"smiles": "CCOC(=O)[C@@H]1[C@H]2COc3ccccc3[C@H]2N2C(=O)N(c3ccc(F)cc3)C(=O)[C@]12C", "Potency": "inconclusive: 23.1 µM [activator, single point]"}
{"smiles": "COC(=O)c1ccc(NC(=O)CCN2CCCCC2)cc1", "lipid storage change, negative = inhibition": "inconclusive: -0.161%"}
{"smiles": "CC(Oc1cccc(Cl)c1)C(=O)Nc1nc(-c2ccccn2)cs1", "note": "(stereo not given)", "lipid storage change, negative = inhibition": "inconclusive: 54.3% [at 0.0737 µM]"}
{"smiles": "O=C(NC1CCCC1)C(c1ccco1)N(C(=O)c1ccco1)c1ccc(F)cc1", "note": "(stereo not given)", "Potency": "inconclusive: 0.103 µM [activator, partial curve, poor fit]"}
{"smiles": "Cc1ccc(NC(=S)N(CCCN(C)C)Cc2cc3cc4c(cc3[nH]c2=O)OCO4)c(C)c1", "lipid storage change, negative = inhibition": "inconclusive: 16.5%"}
{"smiles": "O=C(O)CCCn1c(=S)[nH]c2c(sc3ccc([N+](=O)[O-])cc32)c1=O", "lipid storage change, negative = inhibition": "inconclusive: -21.7%"}
{"smiles": "Cc1ccc(CNC(C)(C)CO)cc1", "lipid storage change, negative = inhibition": "inconclusive: -8.31%"}
{"smiles": "O=C(NC1CCCCCC1)C(=O)NC1CC1", "lipid storage change, negative = inhibition": "inconclusive: 4.5%"}
{"smiles": "COc1ccc(S(=O)(=O)N2CCN(c3nc4ccccc4nc3-n3nc(C)cc3C)CC2)cc1", "lipid storage change, negative = inhibition": "inactive"}
{"smiles": "CCOC(=O)c1c(S(=O)(=O)N(C)C2CCCCC2)c(C)n(C)c1C", "lipid storage change, negative = inhibition": "inconclusive: -140%"}
{"smiles": "COc1cc(C(=O)OC2CCCCC2=O)cc(OC)c1C", "note": "(stereo not given)", "Potency": "inconclusive: 9.2 µM [falling, partial curve, poor fit]"}
{"smiles": "Cc1ccc(S(=O)(=O)N2CCC(C(=O)OCC(=O)NCCc3ccccc3)CC2)cc1C", "Potency": "inconclusive: 20.6 µM [activator, single point]"}
{"smiles": "CCCc1nc(SCC(=O)N2c3ccccc3CC2C)c2c(C)c(C)sc2n1", "note": "(stereo not given)", "lipid storage change, negative = inhibition": "inconclusive: 29.7%"}
{"smiles": "CCN(CC)CC(O)Cn1c(-c2ccccc2Cl)nc2ccccc21", "note": "(stereo not given)", "Potency": "inconclusive: 20.6 µM [activator, single point]"}
{"smiles": "N#Cc1ccc(-n2c(-c3ccccc3)nnc2-c2ccccc2)cc1C#N", "lipid storage change, negative = inhibition": "inconclusive: -10%"}
